Results are given in words; binding and its absence hold for the method and conditions named. Some results given as binding are weak or reduced against the parent protein; the word gives no strength. For some assays here: Tags and fused reporters may be left off the sequences shown.

Amino acid sequences for entries named in this document (tags omitted).
UniProt P0A9A6: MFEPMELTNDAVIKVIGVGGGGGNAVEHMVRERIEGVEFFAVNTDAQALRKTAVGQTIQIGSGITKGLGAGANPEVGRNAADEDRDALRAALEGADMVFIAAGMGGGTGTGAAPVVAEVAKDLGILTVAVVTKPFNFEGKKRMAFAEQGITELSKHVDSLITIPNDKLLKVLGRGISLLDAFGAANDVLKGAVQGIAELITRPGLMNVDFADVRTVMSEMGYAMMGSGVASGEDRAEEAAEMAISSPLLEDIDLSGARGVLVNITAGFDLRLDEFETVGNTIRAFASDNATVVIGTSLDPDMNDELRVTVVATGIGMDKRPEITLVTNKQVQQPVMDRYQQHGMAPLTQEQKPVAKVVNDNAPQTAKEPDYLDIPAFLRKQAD

Assay [1] deals with T1, FtsA (cell-free expressed) (E. coli) (UniProt P0ABH0).
T1 sequence: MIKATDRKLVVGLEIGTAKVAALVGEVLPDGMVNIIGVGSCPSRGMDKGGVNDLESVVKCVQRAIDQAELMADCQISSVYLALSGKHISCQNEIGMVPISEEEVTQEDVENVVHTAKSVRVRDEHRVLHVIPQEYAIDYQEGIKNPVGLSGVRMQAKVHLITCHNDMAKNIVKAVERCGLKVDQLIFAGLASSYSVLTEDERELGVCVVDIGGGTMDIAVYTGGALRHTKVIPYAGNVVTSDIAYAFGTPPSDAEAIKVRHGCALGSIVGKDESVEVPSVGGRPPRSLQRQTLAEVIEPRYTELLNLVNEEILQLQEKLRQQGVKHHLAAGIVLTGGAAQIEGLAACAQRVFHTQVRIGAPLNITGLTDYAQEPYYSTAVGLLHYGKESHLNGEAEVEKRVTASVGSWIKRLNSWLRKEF
Description: membrane recruitment on a supported lipid bilayer by confocal fluorescence microscopy; 3 µM purified FtsZ-A647 mixed with FtsA pre-expressed in PUREfrex2.0, 2 mM GTP, 2.5 mM ATP, on a DOPC/DOPG supported lipid bilayer; 37 °C; only the binder purified.

Assay [2] deals with MinE (cell-free expressed) (E. coli) (UniProt P0A734). The experiment in a line: membrane recruitment in liposomes by confocal fluorescence microscopy; minD or minE gene expressed alone in PUREfrex2.0 inside liposomes with 1 µM purified eGFP-MinC, 2.5 mM ATP and DnaK mix; 37 °C; eGFP-MinC signal at the membrane or in the lumen; only the binder purified.

“FtsZ-Alexa647 (from UniProt P0A9A6 1-383)”: the binding result in assay [1] was “binds”.

B1: eGFP-MinC (protein, UniProt P18196 1-231)
chain: MSNTPIELKGSSFTLSVVHLHEAEPKVIHQALEDKIAQAPAFLKHAPVVLNVSALEDPVNWSAMHKAVSATGLRVIGVSGCKDAQLKAEIEKMGLPILTEGKEKAPRPAPTPQAPAQNTTPVTKTRLIDTPVRSGQRIYAPQCDLIVTSHVSAGAELIADGNIHVYGMMRGRALAGASGDRETQIFCTNLMAELVSIAGEYWLSDQIPAEFYGKAARLQLVENALTVQPLN
Consider B1, for which, in assay [2], the binding entry is on record as “no binding (tested: 1 µM)”.
